± gives the standard deviation of the averaged measurements. Most values lie at the level of the controls, where differences are scatter.
Key:
Test in all cases: level (log10 ratio to DMSO vehicle control); higher = higher biomarker level / cell amount than vehicle control
[1] = compound: C=C(C)C(=O)OCC(F)(F)C(F)(F)C(F)(F)C(F)(F)C(F)(F)C(F)(F)C(F)(F)F; conditions: in DMSO
Protocol: (§1)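 BioMAP Diversity Plus panel of 12 human primary cell co-culture systems (3C, 4H, LPS, SAg, BT, BF4T, BE3C, CASM3C, HDF3CGF, KF3CT, MyoF, Mphg). Compounds were added 1 h before stimulation and left for 24 h (MyoF 48 h; BT 72 h for soluble read-outs or 6 d for IgG). Biomarkers were read by ELISA, cytotoxicity by SRB, PBMC viability and proliferation by Alamar Blue. Each well value was divided by the mean of 8 DMSO control wells on the same plate and log10 transformed; duplicate blinded samples were tested at 4 concentrations.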

[2] = compound: C=CC(=O)OCC(F)(F)C(F)(F)C(F)(F)C(F)(F)C(F)(F)C(F)(F)C(F)(F)F [1H,1H-Perfluorooctyl acrylate]; conditions: 2200 nM; in DMSO
Protocol: as §1

[3] = compound: C=CC(F)(F)C(F)(F)C(F)(F)C(F)(F)C(F)(F)C(F)(F)C(F)(F)C(F)(F)C=C [1,8-Divinylperfluorooctane]; conditions: in DMSO
Protocol: as §1

[4] = compound: COC(=O)C(F)(F)C(F)(F)OC(F)(C(F)(F)F)C(F)(F)OC(F)=C(F)F [Methyl perfluoro(3-(1-ethenyloxypropan-2-yloxy)propanoate)]; conditions: in DMSO
Protocol: as §1

[5] = compound: CO[Si](C)(CCC(F)(F)C(F)(F)C(F)(F)C(F)(F)C(F)(F)C(F)(F)F)OC [Dimethoxymethyl((perfluorohexyl)ethyl)silane]; conditions: in DMSO
Protocol: as §1

[6] = compound: FC(F)(F)C(F)(F)C(F)(F)CC1CO1 [1H,1H-Heptafluorobutyl epoxide]; conditions: 2200 nM; in DMSO
Protocol: as §1

Heptafluorobutyl iodide = compound: FC(F)(F)C(F)(F)C(F)(F)CI [Heptafluorobutyl iodide]; conditions: 2200 nM; in DMSO
Protocol: as §1

[7] = compound: NC(=O)C(F)(F)C(F)(F)C(F)(F)C(F)F; conditions: in DMSO
Protocol: as §1

Pentafluoropropionamide = compound: NC(=O)C(F)(F)C(F)(F)F [Pentafluoropropionamide]; conditions: 2200 nM; in DMSO
Protocol: as §1

[8] = compound: NS(=O)(=O)C(F)(F)C(F)(F)C(F)(F)C(F)(F)C(F)(F)C(F)(F)C(F)(F)C(F)(F)F [Perfluorooctanesulfonamide]; conditions: in DMSO
Protocol: as §1

[9] = compound: O=C(O)C(F)(F)C(F)(F)C(F)F [4H-Perfluorobutanoic acid]; conditions: in DMSO
Protocol: as §1

[10] = compound: O=P(O)(O)CCC(F)(F)C(F)(F)C(F)(F)C(F)(F)C(F)(F)C(F)(F)F [2-(Perfluorohexyl)ethylphosphonic acid]; conditions: 2200 nM; in DMSO
Protocol: as §1

[11] = compound: O=S(=O)(F)C(F)(F)C(F)(F)C(F)(F)C(F)(F)C(F)(F)C(F)(F)C(F)(F)C(F)(F)F [Perfluorooctanesulfonyl fluoride]; conditions: 2200 nM; in DMSO
Protocol: as §1

[12] = compound: O=S(=O)(O)C(F)(F)C(F)(F)C(F)(F)C(F)(F)C(F)(F)C(F)(F)C(F)(F)C(F)(F)F [Perfluorooctanesulfonic acid]; conditions: 2200 nM; in DMSO
Protocol: as §1

[13] = compound: O=S(=O)(O)C(F)(F)C(F)(F)C(F)(F)C(F)(F)C(F)(F)C(F)(F)C(F)(F)C(F)(F)F [Potassium perfluorooctanesulfonate]; conditions: 2200 nM; in DMSO
Protocol: as §1

[14] = compound: O=S(=O)(OCC(F)(F)F)C(F)(F)C(F)(F)C(F)(F)C(F)(F)F [2,2,2-Trifluoroethyl perfluorobutanesulfonate]; conditions: 2200 nM; in DMSO
Protocol: as §1

[15] = compound: OCC(F)(F)C(F)(F)C(F)(F)C(F)(F)C(F)(F)C(F)F [1H,1H,7H-Dodecafluoro-1-heptanol]; conditions: 2200 nM; in DMSO
Protocol: as §1

[16] = compound: OCCCCC(F)(F)C(F)(F)C(F)(F)C(F)(F)F [4:4 Fluorotelomer alcohol]; conditions: 2200 nM; in DMSO
Protocol: as §1

Test System | level (log10) ([1]; 740 nM) | level (log10) ([1]; 2200 nM) | level (log10) [2] | level (log10) ([3]; 740 nM) | level (log10) ([3]; 2200 nM) | level (log10) ([4]; 740 nM) | level (log10) ([4]; 2200 nM) | level (log10) ([5]; 740 nM) | level (log10) ([5]; 2200 nM) | level (log10) [6] | level (log10) (Heptafluorobutyl iodide) | level (log10) ([7]; 2200 nM) | level (log10) ([7]; 6700 nM) | level (log10) ([7]; 20000 nM) | level (log10) ([7]; 60000 nM) | level (log10) (Pentafluoropropionamide) | level (log10) ([8]; 2200 nM) | level (log10) ([8]; 6700 nM) | level (log10) ([8]; 20000 nM) | level (log10) ([9]; 2200 nM) | level (log10) ([9]; 6700 nM) | level (log10) ([9]; 20000 nM) | level (log10) ([9]; 60000 nM) | level (log10) [10] | level (log10) [11] | level (log10) [12] | level (log10) [13] | level (log10) [14] | level (log10) [15] | level (log10) [16]
KF3CT:PAI-I | 0.0015 ± 0.016 | -0.004 ± 0.017 | -0.0065 ± 0.005 | 0.0035 ± 0.016 | 0.001 ± 0.0042 | 0.0115 ± 0.028 | 0.012 ± 0.0071 | -0.0085 ± 0.021 | 0.005 ± 0.03 | -0.0015 ± 0.028 | 0.004 ± 0.016 | 0.014 ± 0.013 | -0.005 ± 0.0042 | -0.0085 ± 0.0064 | -0.007 ± 0.02 | 0.0015 ± 0.0021 | 0.027 ± 0.021 | 0.03 ± 0.027 | -0.108 ± 0.054 | 0.02 ± 0.0071 | 0.0015 ± 0.022 | 0.046 ± 0.02 | -0.0075 ± 0.073 | -0.0405 ± 0.021 | -0.0085 ± 0.021 | -0.003 ± 0.0042 | -0.01 ± 0.021 | -0.002 ± 0.0014 | 0.002 ± 0.014 | -0.0075 ± 0.012
KF3CT:SRB | 0.009 ± 0.03 | -0.0065 ± 0.021 | 0.0005 ± 0.013 | -0.0085 ± 0.019 | -0.0185 ± 0.025 | 0.015 ± 0.0042 | -0.0035 ± 0.005 | 0.0015 ± 0.015 | -0.0055 ± 0.00071 | 0.0025 ± 0.015 | 0.0025 ± 0.0064 | 0.0115 ± 0.016 | -0.006 ± 0.0028 | -0.0005 ± 0.0064 | -0.002 ± 0.013 | 0.0045 ± 0.013 | 0.0055 ± 0.00071 | -0.0035 ± 0.015 | -0.0455 ± 0.029 | 0.0025 ± 0.0035 | -0.005 ± 0.0071 | -0.0065 ± 0.0064 | -0.008 ± 0.0014 | 0.0065 ± 0.013 | 0.0025 ± 0.0064 | -0.004 | 0.0005 ± 0.015 | 0.0035 ± 0.015 | 0.0185 ± 0.028 | -0.0085 ± 0.00071
KF3CT:TIMP-2 | 0.0325 ± 0.056 | 0.008 ± 0.03 | -0.0205 ± 0.021 | -0.019 ± 0.051 | -0.029 ± 0.041 | 0 ± 0.0028 | 0 ± 0.0028 | -0.019 ± 0.031 | 0.0025 ± 0.023 | 0.015 ± 0.034 | -0.0015 ± 0.00071 | 0.0085 ± 0.026 | -0.006 ± 0.0057 | -0.005 ± 0.013 | 0.0015 ± 0.019 | 0.003 ± 0.041 | -0.013 ± 0.0071 | -0.0275 ± 0.012 | -0.06 ± 0.021 | 0.003 ± 0.028 | 0.002 ± 0.031 | -0.011 ± 0.016 | 0.004 ± 0.0099 | -0.0105 ± 0.042 | 0.0015 ± 0.015 | -0.0065 ± 0.0064 | -0.011 ± 0.0042 | -0.0325 ± 0.011 | 0.0095 ± 0.021 | -0.016 ± 0.011
KF3CT:uPA | -0.006 | 0.0095 ± 0.0035 | 0.005 ± 0.0057 | -0.0005 ± 0.012 | -0.0185 ± 0.0035 | -0.011 ± 0.013 | 0.012 ± 0.0099 | -0.014 ± 0.0071 | -0.005 ± 0.013 | -0.022 ± 0.021 | -0.006 ± 0.033 | 0.0285 ± 0.019 | 0.008 ± 0.025 | -0.0125 ± 0.028 | -0.008 ± 0.021 | 0.0075 ± 0.022 | 0.0055 ± 0.011 | 0.0165 ± 0.0064 | -0.093 ± 0.0014 | 0.0115 ± 0.0035 | 0.0125 ± 0.028 | 0.0275 ± 0.0064 | 0.007 ± 0.035 | 0.014 ± 0.013 | 0.0025 ± 0.011 | -0.0065 ± 0.011 | 0.001 ± 0.031 | 0.006 ± 0.014 | -0.0025 ± 0.00071 | -0.0015 ± 0.00071
LPS:CCL2/MCP-1 | -0.0035 ± 0.035 | 0.0005 ± 0.019 | 0.0085 ± 0.037 | 0.014 ± 0.011 | 0.0025 ± 0.011 | -0.008 ± 0.04 | 0.0035 ± 0.0078 | 0.003 ± 0.014 | -0.018 ± 0.0085 | -0.012 ± 0.037 | 0.022 ± 0.025 | 0.027 ± 0.071 | 0.009 ± 0.045 | 0.005 ± 0.042 | 0.03 ± 0.013 | -0.012 ± 0.034 | 0.021 ± 0.03 | -0.0035 ± 0.013 | 0.0165 ± 0.0021 | 0.0115 ± 0.023 | -0.0195 ± 0.0021 | -0.007 ± 0.0042 | 0.017 ± 0.054 | 0.0195 ± 0.019 | 0.0035 ± 0.016 | 0.006 ± 0.03 | 0.0125 ± 0.025 | -0.0345 ± 0.0035 | 0.004 ± 0.023 | -0.0095 ± 0.016
LPS:CD40 | 0.005 ± 0.0028 | -0.0045 ± 0.0035 | 0.0455 ± 0.12 | 0.0055 ± 0.023 | -0.0005 ± 0.013 | 0.05 ± 0.0071 | 0.0425 ± 0.0092 | -0.025 ± 0.013 | -0.0095 ± 0.029 | 0.017 ± 0.011 | -0.018 ± 0.037 | -0.013 ± 0.088 | -0.0125 ± 0.029 | -0.0045 ± 0.018 | -0.03 ± 0.017 | -0.0335 ± 0.0092 | -0.0565 ± 0.0021 | -0.0635 ± 0.018 | -0.115 ± 0.0042 | 0.009 ± 0.013 | -0.0365 ± 0.022 | -0.0355 ± 0.021 | 0.015 ± 0.031 | -0.0195 ± 0.028 | -0.133 ± 0.38 | -0.0085 ± 0.035 | -0.056 ± 0.041 | -0.011 ± 0.045 | 0.0005 ± 0.0064 | -0.0025 ± 0.012
LPS:CD62E/E-Selectin | -0.048 ± 0.065 | -0.056 ± 0.034 | -0.005 ± 0.011 | 0.0005 ± 0.022 | -0.0335 ± 0.0021 | -0.002 ± 0.0057 | 0.002 | 0.0065 ± 0.047 | 0.0055 ± 0.025 | 0.0285 ± 0.00071 | 0.0165 ± 0.06 | -0.002 ± 0.02 | -0.0115 ± 0.022 | -0.023 ± 0.0014 | -0.016 ± 0.016 | 0.0045 ± 0.0078 | 0.0065 ± 0.00071 | -0.015 ± 0.023 | 0.018 ± 0.016 | -0.0075 ± 0.005 | -0.006 ± 0.013 | 0.002 ± 0.0028 | 0.0075 ± 0.011 | 0.0115 ± 0.016 | -0.004 ± 0.011 | 0.0015 ± 0.028 | 0.0035 ± 0.03 | 0.023 ± 0.021 | 0.003 ± 0.021 | -0.005 ± 0.031
LPS:CD69 | 0.0295 ± 0.064 | 0.0045 ± 0.097 | -0.0025 ± 0.026 | 0.002 ± 0.02 | -0.0105 ± 0.0064 | -0.0105 ± 0.005 | -0.0435 ± 0.012 | -0.0225 ± 0.059 | -0.031 ± 0.0028 | 0 ± 0.081 | -0.03 ± 0.025 | 0.017 ± 0.05 | 0.006 ± 0.027 | 0.021 ± 0.035 | 0.0225 ± 0.061 | -0.013 ± 0.034 | -0.002 ± 0.045 | -0.0475 ± 0.0064 | -0.13 | 0.0195 ± 0.063 | 0.024 ± 0.035 | 0.02 ± 0.034 | 0.028 ± 0.028 | -0.0005 ± 0.14 | 0.0075 ± 0.011 | -0.0095 ± 0.013 | -0.023 | 0.0485 ± 0.08 | -0.002 ± 0.088 | 0.0125 ± 0.022

From the supplement of paper PMC10331698
